Data as given in PubChem BioAssay AID1259425 (University of Nebraska Medical Center, 2018).
The whole screen tested about 14,000 reagents; this is a part drawn at random. Further read-outs or replicates are left out here. No sequences are given here. Not given: the time to read-out.

- Aim: 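Seek colon cancer weak points whose silencing resembles KSR1 loss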 (primary screen)
- Cells: HCT116 human colon cancer cells
- Reagents: siRNA pool against human genes, 50 nM siRNA
- Detection: 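mRNA of six signature genes measured together by branched-DNA assay after 50 nM siRNA pool, blank removed, divided by geometric mean of two housekeeping genes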
- Reading the numbers: BNIP3L mRNA: higher = more BNIP3L transcript after knockdown; NDRG1 mRNA: higher = more NDRG1 transcript after knockdown

Depletion of RAPH1 came out at: BNIP3L mRNA, set 1 = 0.0903; NDRG1 mRNA, set 1 = 0.132.
For KDM3B the deposit lists BNIP3L mRNA, set 1 = 0.135; NDRG1 mRNA, set 1 = 0.44.
Against VIPR2, the values are BNIP3L mRNA, set 1 = 0.186; NDRG1 mRNA, set 1 = 0.532.
After knock-down of SYNGR3, the screen gave BNIP3L mRNA, set 1 = 0.206; NDRG1 mRNA, set 1 = 0.36.
After knock-down of SUZ12, the record shows BNIP3L mRNA, set 1 = 0.112; NDRG1 mRNA, set 1 = 0.147.
With knock-down of ABCC3, the screen gave BNIP3L mRNA, set 1 = 0.301; NDRG1 mRNA, set 1 = 0.372.
Knock-down of VPS26C came out at: BNIP3L mRNA, set 1 = 0.0922; NDRG1 mRNA, set 1 = 0.126.
Against CDKL3 the deposit lists BNIP3L mRNA, set 1 = 0.104; NDRG1 mRNA, set 1 = 0.0613.
ZHX1 scored BNIP3L mRNA, set 1 = 0.0846; NDRG1 mRNA, set 1 = 0.561.
Silencing of PROP1 gave: BNIP3L mRNA, set 1 = 0.213; NDRG1 mRNA, set 1 = 0.21.
Against ERVMER34-1 the deposit lists BNIP3L mRNA, set 1 = 0.144; NDRG1 mRNA, set 1 = 0.416.
Silencing of ACCS came out at: BNIP3L mRNA, set 1 = 0.157; NDRG1 mRNA, set 1 = 0.0985.
NKIRAS1 scored BNIP3L mRNA, set 1 = 0.102; NDRG1 mRNA, set 1 = 0.299.
Depletion of LLPH resulted in: BNIP3L mRNA, set 1 = 0.176; NDRG1 mRNA, set 1 = 0.315.
Depletion of BPESC1 resulted in: BNIP3L mRNA, set 1 = 0.212; NDRG1 mRNA, set 1 = 0.366.
Silencing of ZNF574 gave: BNIP3L mRNA, set 1 = 0.104; NDRG1 mRNA, set 1 = 1.16.
With knock-down of DENND5A, the screen gave BNIP3L mRNA, set 1 = 0.205; NDRG1 mRNA, set 1 = 0.274.
Depletion of GARRE1 came out at: BNIP3L mRNA, set 1 = 0.14; NDRG1 mRNA, set 1 = 0.602.
With knock-down of ERCC4, the screen gave BNIP3L mRNA, set 1 = 0.0514; NDRG1 mRNA, set 1 = 1.13.

Laid out differently: 2 of the entries above.
VPS26C
- BNIP3L mRNA, set 1: 0.0922
- NDRG1 mRNA, set 1: 0.126

CDKL3
- BNIP3L mRNA, set 1: 0.104
- NDRG1 mRNA, set 1: 0.0613
